# The other results are listed elsewhere or left out.
# B1: OS9-MRH (Homo sapiens), Q13438 (protein)
# chain: IPELLSPMRDAPCLLKTKDWWTYEFCYGRHIQQYHMEDSEIKGEVLYLGYYQSAFDWDDETAKASKQHRLKRYHSQTYGNGSKCDLNGRPREAEVRFLCDEGAGISGDYIDRVDEPLSCSYVLTIRTPRLCPHPLLRPPPSAAPQAI
# What was measured:
# Test in all cases: glycan array binding signal (z-score within array); higher = stronger binding
# Details in all cases: glycan notation: IUPAC condensed, linker removed
# [1] = target: GlcNAc(b1-3)Gal(b1-3)GalNAc
# Summary of the method: (§1)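 Negative Z-scores can be read as non-binding. The Z-score is calculated within each array and then averaged across arrays of one protein sequence at different concentrations or buffers and across linkers. Arrays, 3228 in all, were curated from the Consortium for Functional Glycomics database and kept only where the protein sequence was available.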
# GlcNAc(b1-3)Gal(b1-4)Glc = target: GlcNAc(b1-3)Gal(b1-4)Glc
# Summary of the method: as §1
# [2] = target: GlcNAc(b1-3)Gal(b1-4)GlcNAc
# Summary of the method: as §1
# [3] = target: GlcNAc(b1-3)Gal(b1-4)GlcNAc(b1-2)Man(a1-3)[GlcNAc(b1-3)Gal(b1-4)GlcNAc(b1-2)Man(a1-6)]Man(b1-4)GlcNAc(b1-4)GlcNAc
# Summary of the method: as §1
# [4] = target: GlcNAc(b1-3)Gal(b1-4)GlcNAc(b1-2)Man(a1-3)[GlcNAc(b1-3)Gal(b1-4)GlcNAc(b1-2)Man(a1-6)]Man(b1-4)GlcNAc(b1-4)[Fuc(a1-6)]GlcNAc
# Summary of the method: as §1
# [5] = target: GlcNAc(b1-3)Gal(b1-4)GlcNAc(b1-2)[GlcNAc(b1-3)Gal(b1-4)GlcNAc(b1-6)]Man(a1-6)[GlcNAc(b1-3)Gal(b1-4)GlcNAc(b1-2)Man(a1-3)]Man(b1-4)GlcNAc(b1-4)GlcNAc
# Summary of the method: as §1
# [6] = target: GlcNAc(b1-3)Gal(b1-4)GlcNAc(b1-3)Gal(b1-4)GlcNAc
# Summary of the method: as §1
# [7] = target: GlcNAc(b1-3)Gal(b1-4)GlcNAc(b1-3)Gal(b1-4)GlcNAc(b1-2)Man(a1-3)[GlcNAc(b1-3)Gal(b1-4)GlcNAc(b1-3)Gal(b1-4)GlcNAc(b1-2)Man(a1-6)]Man(b1-4)GlcNAc(b1-4)GlcNAc
# Summary of the method: as §1
# [8] = target: GlcNAc(b1-3)Gal(b1-4)GlcNAc(b1-3)Gal(b1-4)GlcNAc(b1-2)Man(a1-3)[GlcNAc(b1-3)Gal(b1-4)GlcNAc(b1-3)Gal(b1-4)GlcNAc(b1-2)Man(a1-6)]Man(b1-4)GlcNAc(b1-4)[Fuc(a1-6)]GlcNAc
# Summary of the method: as §1
# [9] = target: GlcNAc(b1-3)Gal(b1-4)GlcNAc(b1-3)Gal(b1-4)GlcNAc(b1-2)[GlcNAc(b1-3)Gal(b1-4)GlcNAc(b1-3)Gal(b1-4)GlcNAc(b1-6)]Man(a1-6)[GlcNAc(b1-3)Gal(b1-4)GlcNAc(b1-3)Gal(b1-4)GlcNAc(b1-2)Man(a1-3)]Man(b1-4)GlcNAc(b1-4)[Fuc(a1-6)]GlcNAc
# Summary of the method: as §1
# [10] = target: GlcNAc(b1-3)Gal(b1-4)GlcNAc(b1-3)Gal(b1-4)GlcNAc(b1-3)Gal(b1-4)GlcNAc(b1-2)Man(a1-3)[GlcNAc(b1-3)Gal(b1-4)GlcNAc(b1-3)Gal(b1-4)GlcNAc(b1-3)Gal(b1-4)GlcNAc(b1-2)Man(a1-6)]Man(b1-4)GlcNAc(b1-4)GlcNAc
# Summary of the method: as §1
# [11] = target: GlcNAc(b1-3)Gal(b1-4)GlcNAc(b1-3)Gal(b1-4)GlcNAc(b1-3)Gal(b1-4)GlcNAc(b1-2)Man(a1-3)[GlcNAc(b1-3)Gal(b1-4)GlcNAc(b1-3)Gal(b1-4)GlcNAc(b1-3)Gal(b1-4)GlcNAc(b1-2)Man(a1-6)]Man(b1-4)GlcNAc(b1-4)[Fuc(a1-6)]GlcNAc
# Summary of the method: as §1
# [12] = target: GlcNAc(b1-3)Gal(b1-4)GlcNAc(b1-3)Gal(b1-4)GlcNAc(b1-3)Gal(b1-4)GlcNAc(b1-2)[GlcNAc(b1-3)Gal(b1-4)GlcNAc(b1-3)Gal(b1-4)GlcNAc(b1-3)Gal(b1-4)GlcNAc(b1-6)]Man(a1-6)[GlcNAc(b1-3)Gal(b1-4)GlcNAc(b1-3)Gal(b1-4)GlcNAc(b1-3)Gal(b1-4)GlcNAc(b1-2)Man(a1-3)]Man(b1-4)GlcNAc(b1-4)[Fuc(a1-6)]GlcNAc
# Summary of the method: as §1
# [13] = target: GlcNAc(b1-3)Gal(b1-4)GlcNAc(b1-3)Gal(b1-4)GlcNAc(b1-3)Gal(b1-4)GlcNAc(b1-3)Gal(b1-4)GlcNAc(b1-2)Man(a1-3)[GlcNAc(b1-3)Gal(b1-4)GlcNAc(b1-3)Gal(b1-4)GlcNAc(b1-3)Gal(b1-4)GlcNAc(b1-3)Gal(b1-4)GlcNAc(b1-2)Man(a1-6)]Man(b1-4)GlcNAc(b1-4)GlcNAc
# Summary of the method: as §1
# [14] = target: GlcNAc(b1-3)Gal(b1-4)GlcNAc(b1-3)Gal(b1-4)GlcNAc(b1-3)Gal(b1-4)GlcNAc(b1-3)Gal(b1-4)GlcNAc(b1-2)Man(a1-3)[GlcNAc(b1-3)Gal(b1-4)GlcNAc(b1-3)Gal(b1-4)GlcNAc(b1-3)Gal(b1-4)GlcNAc(b1-3)Gal(b1-4)GlcNAc(b1-2)Man(a1-6)]Man(b1-4)GlcNAc(b1-4)[Fuc(a1-6)]GlcNAc
# Summary of the method: as §1
# [15] = target: GlcNAc(b1-3)Gal(b1-4)GlcNAc(b1-3)Gal(b1-4)GlcNAc(b1-3)Gal(b1-4)GlcNAc(b1-3)Gal(b1-4)GlcNAc(b1-2)[GlcNAc(b1-3)Gal(b1-4)GlcNAc(b1-3)Gal(b1-4)GlcNAc(b1-3)Gal(b1-4)GlcNAc(b1-3)Gal(b1-4)GlcNAc(b1-6)]Man(a1-6)[GlcNAc(b1-3)Gal(b1-4)GlcNAc(b1-3)Gal(b1-4)GlcNAc(b1-3)Gal(b1-4)GlcNAc(b1-3)Gal(b1-4)GlcNAc(b1-2)Man(a1-3)]Man(b1-4)GlcNAc(b1-4)[Fuc(a1-6)]GlcNAc
# Summary of the method: as §1
# [16] = target: GlcNAc(b1-3)Gal(b1-4)GlcNAc(b1-3)Gal(b1-4)GlcNAc(b1-3)GalNAc
# Summary of the method: as §1
# [17] = target: GlcNAc(b1-3)Gal(b1-4)GlcNAc(b1-3)GalNAc
# Summary of the method: as §1
# [18] = target: GlcNAc(b1-3)Gal(b1-4)GlcNAc(b1-3)[GlcNAc(b1-3)Gal(b1-4)GlcNAc(b1-3)]GalNAc
# Summary of the method: as §1
# [19] = target: GlcNAc(b1-3)Gal(b1-4)GlcNAc(b1-6)[Gal(b1-3)]GalNAc
# Summary of the method: as §1
# [20] = target: GlcNAc(b1-3)Gal(b1-4)GlcNAc(b1-6)[GlcNAc(b1-3)Gal(b1-3)]GalNAc
# Summary of the method: as §1
# [21] = target: GlcNAc(b1-3)Gal(b1-4)GlcNAc(b1-6)[GlcNAc(b1-3)]Gal(b1-4)GlcNAc
# Summary of the method: as §1
# GlcNAc(b1-3)GalNAc = target: GlcNAc(b1-3)GalNAc
# Summary of the method: as §1
# GlcNAc(b1-3)Man = target: GlcNAc(b1-3)Man
# Summary of the method: as §1
# [22] = target: GlcNAc(b1-3)[GlcNAc(b1-4)][GlcNAc(b1-6)]GlcNAc
# Summary of the method: as §1
# [23] = target: GlcNAc(b1-3)[GlcNAc(b1-6)]Gal(b1-4)GlcNAc
# Summary of the method: as §1
# [24] = target: GlcNAc(b1-3)[GlcNAc(b1-6)]GalNAc
# Summary of the method: as §1
# [25] = target: GlcNAc(b1-4)Gal(b1-4)GlcNAc
# Summary of the method: as §1
# GlcNAc(b1-4)GlcNAc = target: GlcNAc(b1-4)GlcNAc
# Summary of the method: as §1
# [26] = target: GlcNAc(b1-4)GlcNAc(b1-4)GlcNAc
# Summary of the method: as §1
# [27] = target: GlcNAc(b1-4)GlcNAc(b1-4)GlcNAc(b1-4)GlcNAc(b1-4)GlcNAc
# Summary of the method: as §1
# [28] = target: GlcNAc(b1-4)GlcNAc(b1-4)GlcNAc(b1-4)GlcNAc(b1-4)GlcNAc(b1-4)GlcNAc
# Summary of the method: as §1
# [29] = target: GlcNAc(b1-4)[GlcNAc(b1-6)]GalNAc
# Summary of the method: as §1
# [30] = target: GlcNAc(b1-6)Gal(b1-4)GlcNAc
# Summary of the method: as §1
# GlcNAc(b1-6)GalNAc = target: GlcNAc(b1-6)GalNAc
# Summary of the method: as §1
# [31] = target: GlcNAc6S(b1-3)Gal(b1-4)GlcNAc
# Summary of the method: as §1
# Kdn(a2-3)Gal(b1-3)GalNAc = target: Kdn(a2-3)Gal(b1-3)GalNAc
# Summary of the method: as §1
# Kdn(a2-3)Gal(b1-3)GlcNAc = target: Kdn(a2-3)Gal(b1-3)GlcNAc
# Summary of the method: as §1
# Kdn(a2-3)Gal(b1-4)Glc = target: Kdn(a2-3)Gal(b1-4)Glc
# Summary of the method: as §1
# Kdn(a2-3)Gal(b1-4)GlcNAc = target: Kdn(a2-3)Gal(b1-4)GlcNAc
# Summary of the method: as §1
# [32] = target: Kdn(a2-3)Gal(b1-4)[Fuc(a1-3)]GlcNAc
# Summary of the method: as §1
# Kdn(a2-6)Gal(b1-4)GlcNAc = target: Kdn(a2-6)Gal(b1-4)GlcNAc
# Summary of the method: as §1
# [33] = target: Man(a1-2)Man(a1-2)Man(a1-3)Man
# Summary of the method: as §1
# [34] = target: Man(a1-2)Man(a1-2)Man(a1-6)[Man(a1-3)]Man
# Summary of the method: as §1
# Man(a1-2)Man(a1-3)Man = target: Man(a1-2)Man(a1-3)Man
# Summary of the method: as §1
binder,measurement,setting,value
B1,glycan array binding signal (z-score),[1],-0.313
same,glycan array binding signal (z-score),GlcNAc(b1-3)Gal(b1-4)Glc,-0.975
same,glycan array binding signal (z-score),[2],-0.269
same,glycan array binding signal (z-score),[3],-0.732
same,glycan array binding signal (z-score),[4],-0.413
same,glycan array binding signal (z-score),[5],-0.014
same,glycan array binding signal (z-score),[6],0.469
same,glycan array binding signal (z-score),[7],-0.844
same,glycan array binding signal (z-score),[8],0.656
same,glycan array binding signal (z-score),[9],-0.25
same,glycan array binding signal (z-score),[10],-0.043
same,glycan array binding signal (z-score),[11],-0.434
same,glycan array binding signal (z-score),[12],0.876
same,glycan array binding signal (z-score),[13],-1.22
same,glycan array binding signal (z-score),[14],0.242
same,glycan array binding signal (z-score),[15],-0.047
same,glycan array binding signal (z-score),[16],0.011
same,glycan array binding signal (z-score),[17],0.923
same,glycan array binding signal (z-score),[18],1.21
same,glycan array binding signal (z-score),[19],0.329
same,glycan array binding signal (z-score),[20],-0.516
same,glycan array binding signal (z-score),[21],1.31
same,glycan array binding signal (z-score),GlcNAc(b1-3)GalNAc,1.37
same,glycan array binding signal (z-score),GlcNAc(b1-3)Man,-0.667
same,glycan array binding signal (z-score),[22],0.381
same,glycan array binding signal (z-score),[23],-0.556
same,glycan array binding signal (z-score),[24],-0.056
same,glycan array binding signal (z-score),[25],-0.404
same,glycan array binding signal (z-score),GlcNAc(b1-4)GlcNAc,-0.722
same,glycan array binding signal (z-score),[26],0.252
same,glycan array binding signal (z-score),[27],0.569
same,glycan array binding signal (z-score),[28],-0.3
same,glycan array binding signal (z-score),[29],0.693
same,glycan array binding signal (z-score),[30],-0.726
same,glycan array binding signal (z-score),GlcNAc(b1-6)GalNAc,-0.209
same,glycan array binding signal (z-score),[31],-0.286
same,glycan array binding signal (z-score),Kdn(a2-3)Gal(b1-3)GalNAc,-0.709
same,glycan array binding signal (z-score),Kdn(a2-3)Gal(b1-3)GlcNAc,-0.687
same,glycan array binding signal (z-score),Kdn(a2-3)Gal(b1-4)Glc,0.824
same,glycan array binding signal (z-score),Kdn(a2-3)Gal(b1-4)GlcNAc,1.29
same,glycan array binding signal (z-score),[32],1.04
same,glycan array binding signal (z-score),Kdn(a2-6)Gal(b1-4)GlcNAc,-0.411
same,glycan array binding signal (z-score),[33],0.886
same,glycan array binding signal (z-score),[34],-0.565
same,glycan array binding signal (z-score),Man(a1-2)Man(a1-3)Man,-0.606

# Four neighbouring records out of the list so far:
binder,measurement,setting,value
B1,glycan array binding signal (z-score),[19],0.329
same,glycan array binding signal (z-score),[20],-0.516
same,glycan array binding signal (z-score),[21],1.31
same,glycan array binding signal (z-score),GlcNAc(b1-3)GalNAc,1.37

# Reference: the supplement of paper PMC8728848
